The experiment concerns the target Transmembrane Serine protease 11A (TMPRSS11a) (UniProt Q6ZMR5). The experiment can be described thus: proximity ligation; proximity ligation assays (PLA) between TMPRSS11a and beta-1 Integrin; cells not given.

Amino acid sequences for entries named in this document (tags omitted). A change or cut given only in a name is not applied to a line headed by its entry.
UniProt Q6ZMR5: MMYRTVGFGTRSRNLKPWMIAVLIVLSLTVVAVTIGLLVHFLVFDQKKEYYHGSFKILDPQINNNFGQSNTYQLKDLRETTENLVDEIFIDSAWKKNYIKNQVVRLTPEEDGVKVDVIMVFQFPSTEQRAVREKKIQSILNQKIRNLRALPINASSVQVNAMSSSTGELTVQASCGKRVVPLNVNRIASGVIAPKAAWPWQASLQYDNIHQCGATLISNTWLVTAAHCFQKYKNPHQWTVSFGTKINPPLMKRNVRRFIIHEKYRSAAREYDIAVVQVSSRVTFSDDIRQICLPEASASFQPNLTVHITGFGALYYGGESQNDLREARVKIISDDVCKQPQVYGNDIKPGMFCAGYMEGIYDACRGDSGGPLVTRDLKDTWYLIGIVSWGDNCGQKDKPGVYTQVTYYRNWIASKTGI
UniProt P05556: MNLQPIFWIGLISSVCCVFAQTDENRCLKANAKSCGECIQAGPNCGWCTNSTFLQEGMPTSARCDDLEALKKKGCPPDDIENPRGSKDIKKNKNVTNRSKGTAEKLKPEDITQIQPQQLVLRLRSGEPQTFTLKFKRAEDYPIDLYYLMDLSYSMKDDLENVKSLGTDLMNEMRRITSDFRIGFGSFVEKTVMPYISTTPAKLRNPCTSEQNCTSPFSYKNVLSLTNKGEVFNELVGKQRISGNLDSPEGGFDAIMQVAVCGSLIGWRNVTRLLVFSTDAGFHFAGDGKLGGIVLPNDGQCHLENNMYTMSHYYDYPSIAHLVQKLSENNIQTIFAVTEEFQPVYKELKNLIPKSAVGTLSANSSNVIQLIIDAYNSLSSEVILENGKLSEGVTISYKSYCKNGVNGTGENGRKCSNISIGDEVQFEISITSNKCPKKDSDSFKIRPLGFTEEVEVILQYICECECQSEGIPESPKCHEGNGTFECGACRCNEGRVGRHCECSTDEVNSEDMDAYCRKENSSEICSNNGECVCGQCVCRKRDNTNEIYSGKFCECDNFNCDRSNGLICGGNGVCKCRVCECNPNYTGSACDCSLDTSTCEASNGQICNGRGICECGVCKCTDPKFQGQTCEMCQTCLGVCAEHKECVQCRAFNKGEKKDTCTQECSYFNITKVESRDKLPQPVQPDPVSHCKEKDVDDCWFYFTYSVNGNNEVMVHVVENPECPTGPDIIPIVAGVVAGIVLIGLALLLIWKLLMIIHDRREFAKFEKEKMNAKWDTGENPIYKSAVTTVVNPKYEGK

Results on one substance are retold here after paper PMC8281810.

These are yes or no findings as the source states them, for the method shown. In cells and extracts the contact can be indirect. Some entries that bind do so weakly or less than the wild type.

With “Integrin beta-1 protein (from UniProt P05556 21-798) (receptor)”, the binding entry is on record as “binds”.
